The values that follow come from patent publication US20140031234A1 (published 2014).

For assay [1], the target named is Δ513 of NPR1 (C-terminal transactivation domain) fused to the HA-Tag (Arabidopsis thaliana) (UniProt P93002). Description: pull-down, BTB/POZ-Strep on StrepTactin solid phase, HA-Δ513 detected by immunoblot.
In assay [2] the target is Δ513 of NPR1 fused to the VP16 transactivation domain (Arabidopsis thaliana) (UniProt P93002). Description: plant two-hybrid in Arabidopsis leaves, no SA (figure legend).
For assay [3] the target is unchanged. The assay is described as follows: plant two-hybrid in Arabidopsis leaves, reporter mRNA by qPCR, no SA.
In assay [4] the target is NPR1 BTB/POZ fused to the VP16 transactivation domain (Arabidopsis thaliana) (UniProt P93002). Description: plant two-hybrid in Arabidopsis leaves, with and without SA.
For assay [5], the target named is T1, Strep-tagged NPR1 (full length) (Arabidopsis thaliana), P93002.
T1 chain: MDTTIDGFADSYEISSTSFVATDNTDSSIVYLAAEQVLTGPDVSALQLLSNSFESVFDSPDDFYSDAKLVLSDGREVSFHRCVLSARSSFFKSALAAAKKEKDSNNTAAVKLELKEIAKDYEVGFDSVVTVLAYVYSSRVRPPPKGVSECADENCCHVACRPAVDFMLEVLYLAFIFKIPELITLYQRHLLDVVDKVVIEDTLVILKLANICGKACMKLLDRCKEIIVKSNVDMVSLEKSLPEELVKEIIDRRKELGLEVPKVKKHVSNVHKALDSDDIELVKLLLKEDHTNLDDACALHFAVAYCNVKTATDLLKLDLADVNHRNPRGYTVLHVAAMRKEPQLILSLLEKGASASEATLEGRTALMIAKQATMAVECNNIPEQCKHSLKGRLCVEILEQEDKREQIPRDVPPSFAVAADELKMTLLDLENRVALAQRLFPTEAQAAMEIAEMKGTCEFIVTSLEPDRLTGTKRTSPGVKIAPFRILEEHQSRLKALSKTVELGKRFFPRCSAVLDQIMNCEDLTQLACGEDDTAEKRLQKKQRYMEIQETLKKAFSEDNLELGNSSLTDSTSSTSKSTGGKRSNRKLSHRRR
Description: Sephacryl S300 gel filtration with immunoblot of the fractions; self-association (void-volume oligomer without SA, dimer with 1 mM SA). The conditions noted are these: remark: other sources report otherwise. For orientation: Size exclusion chromatography separates by hydrodynamic size, large species first.

These are yes or no findings as the source states them, for the method shown. For some assays here: Binding seen in cells or lysates may run through a third protein. Some binding calls cover weakened binding; strength is not graded here. For some assays here: Where a sequence is shown, tags or fusion partners need not be part of it.

As to “BTB/POZ (amino acids 1-190 of NPR1) fused to the Strep-Tag (from UniProt P93002 1-190)”, the binding entry in assay [1] is reported as “binds”.

On to “NPR1 BTB/POZ fused to the Gal4 DNA-binding domain (from UniProt P04386 1-147; P93002 1-190)”, for which the binding entry in assay [2], in assay [3] and in assay [4] was “binds” each time.

B1: Strep-tagged NPR1 (full length), P93002 1-593 (receptor, Arabidopsis thaliana, UniProt P93002 1-593, looked up, not shown: small tags and cut ends)
chain: MDTTIDGFADSYEISSTSFVATDNTDSSIVYLAAEQVLTGPDVSALQLLSNSFESVFDSPDDFYSDAKLVLSDGREVSFHRCVLSARSSFFKSALAAAKKEKDSNNTAAVKLELKEIAKDYEVGFDSVVTVLAYVYSSRVRPPPKGVSECADENCCHVACRPAVDFMLEVLYLAFIFKIPELITLYQRHLLDVVDKVVIEDTLVILKLANICGKACMKLLDRCKEIIVKSNVDMVSLEKSLPEELVKEIIDRRKELGLEVPKVKKHVSNVHKALDSDDIELVKLLLKEDHTNLDDACALHFAVAYCNVKTATDLLKLDLADVNHRNPRGYTVLHVAAMRKEPQLILSLLEKGASASEATLEGRTALMIAKQATMAVECNNIPEQCKHSLKGRLCVEILEQEDKREQIPRDVPPSFAVAADELKMTLLDLENRVALAQRLFPTEAQAAMEIAEMKGTCEFIVTSLEPDRLTGTKRTSPGVKIAPFRILEEHQSRLKALSKTVELGKRFFPRCSAVLDQIMNCEDLTQLACGEDDTAEKRLQKKQRYMEIQETLKKAFSEDNLELGNSSLTDSTSSTSKSTGGKRSNRKLSHRRR
In the case of B1, the binding result in assay [5] was “binds”.
